Data set [1] deals with GlaI. Briefly: enzyme reaction in vitro. As to conditions: purified recombinant protein.
For data set [2], the system named is BisI. Kind of data set: enzyme reaction in vitro. As to conditions: 3 h, incomplete cleavage, purified recombinant protein, variant of PCR product, unmodified C.
The target in data set [3] is T1, T4 β-glucosyltransferase (Enterobacteria phage T4) (UniProt P04547).
T1 sequence: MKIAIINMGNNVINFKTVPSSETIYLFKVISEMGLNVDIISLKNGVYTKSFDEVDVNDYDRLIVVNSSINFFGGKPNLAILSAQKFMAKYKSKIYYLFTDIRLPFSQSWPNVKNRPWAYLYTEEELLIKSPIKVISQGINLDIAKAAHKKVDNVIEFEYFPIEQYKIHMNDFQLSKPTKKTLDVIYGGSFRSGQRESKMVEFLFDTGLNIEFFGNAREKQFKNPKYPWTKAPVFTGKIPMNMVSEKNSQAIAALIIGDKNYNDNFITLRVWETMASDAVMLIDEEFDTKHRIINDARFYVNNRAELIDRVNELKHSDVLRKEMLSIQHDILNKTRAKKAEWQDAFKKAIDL
Briefly: binding assay. As to conditions: purified recombinant protein, protein details: SEQ:3 is the coding DNA, variant of PCR product, unmodified C.

From patent publication US20210371910 come the findings set out here.

For some of these results: Negatives hold for the conditions tested. For some of these results: Protein sequences can lack the tags named with them. For at least one entry, the source does not settle the construct or the ends of the probe.

Take “AGAATTGGTTAATTGGTTGTAACACTGGCAGAGCATTACGCTGACTTGACGGGACGGCGGCTTTGTTGAATAAATCGAACTTTTGCTGAGTTGAAGGATCAGATCACGCATCTTCCCGACAACGCAGACCGTTCCGTGGCAAAGCAAAAGTTCAAAATCACCAACTGGTCCACCTACAACAAAGCTCTCATCAACCGTGGCTCCCTCACTTTCTGGCTGGATGATGGGGCGATTCAGGCCTGGTATGAGTCAGCAACACCTTCTTCACGAGGCAGACCTCAGCGCTCAAAGATGCAGGGGTAAAAGCTAACCGCATCTTTACCGACAAGGCATCCGGCAGTTCAACAGATCGGGAAGGGCTGGATTTGCTGAGGATGAAGGTGGAGGAAGGTGATGTCATTCTGGTGAAGAAGCTCGACCGTCTTGGCCGCGACACCGCCGACATGATCCAACTGATAAAAGAGTTTGATGCTCAGGGTGTAGCGGTTCGGTTTATTGACGACGGGATCAGTACCGACGGTGATATGGGGCAAATGGTGGTCACCATCCTGTCGGCTGTGGCACAGGCTGAACGCCGGAGGATCCTAGAGCGCACGAATGAGGGCCGACAGGAAGCAAAGCTGAAAGGAATCAAATTTGGCCGCAGGCGTACCGTGGACAGGAACGTCGTGCTGACGCTTCATCAGAAGGGCACTGGTGCAACGGAAATTGCTCATCAGCTCAGTATTGCCCGCTCCACGGTTTATAAAATTCTTGAAGACGAAAGGGCCTCGTGATACGCCTATTTTTATAGGTTAATGTCATGATAATAATGGTTTCTTAGACGTCAGGTGGCACTTTTCGGGGAAATGTGCGCGGAACCCCTATTTGTTTATTTTTCTAAATACATTCAAATAT (double strand) [PCR product, 5hmC]”: the “activity on this sequence” value in data set [1] (all cytosines 5hmC, 3 h, essentially equal to 5mC, variant of PCR product, unmodified C) is recorded as “active”; in data set [2] (all cytosines 5hmC, equal to 5mC), “active”. Moreover, the binding result in data set [3] (all cytosines 5hmC, glucosylation with UDPG read by MspI protection) is listed as “binds”.
As to “AGAATTGGTTAATTGGTTGTAACACTGGCAGAGCATTACGCTGACTTGACGGGACGGCGGCTTTGTTGAATAAATCGAACTTTTGCTGAGTTGAAGGATCAGATCACGCATCTTCCCGACAACGCAGACCGTTCCGTGGCAAAGCAAAAGTTCAAAATCACCAACTGGTCCACCTACAACAAAGCTCTCATCAACCGTGGCTCCCTCACTTTCTGGCTGGATGATGGGGCGATTCAGGCCTGGTATGAGTCAGCAACACCTTCTTCACGAGGCAGACCTCAGCGCTCAAAGATGCAGGGGTAAAAGCTAACCGCATCTTTACCGACAAGGCATCCGGCAGTTCAACAGATCGGGAAGGGCTGGATTTGCTGAGGATGAAGGTGGAGGAAGGTGATGTCATTCTGGTGAAGAAGCTCGACCGTCTTGGCCGCGACACCGCCGACATGATCCAACTGATAAAAGAGTTTGATGCTCAGGGTGTAGCGGTTCGGTTTATTGACGACGGGATCAGTACCGACGGTGATATGGGGCAAATGGTGGTCACCATCCTGTCGGCTGTGGCACAGGCTGAACGCCGGAGGATCCTAGAGCGCACGAATGAGGGCCGACAGGAAGCAAAGCTGAAAGGAATCAAATTTGGCCGCAGGCGTACCGTGGACAGGAACGTCGTGCTGACGCTTCATCAGAAGGGCACTGGTGCAACGGAAATTGCTCATCAGCTCAGTATTGCCCGCTCCACGGTTTATAAAATTCTTGAAGACGAAAGGGCCTCGTGATACGCCTATTTTTATAGGTTAATGTCATGATAATAATGGTTTCTTAGACGTCAGGTGGCACTTTTCGGGGAAATGTGCGCGGAACCCCTATTTGTTTATTTTTCTAAATACATTCAAATAT (double strand) [PCR product, 5mC]”, the “activity on this sequence” value in data set [1] (all cytosines 5mC, 3 h digestion, variant of PCR product, unmodified C) is recorded as “active”; in data set [2] (all cytosines 5mC) it was “active”. Besides, the binding result in data set [3] (all cytosines 5mC, glucosylation specific to 5hmC) was “no binding”.
In the case of “AGAATTGGTTAATTGGTTGTAACACTGGCAGAGCATTACGCTGACTTGACGGGACGGCGGCTTTGTTGAATAAATCGAACTTTTGCTGAGTTGAAGGATCAGATCACGCATCTTCCCGACAACGCAGACCGTTCCGTGGCAAAGCAAAAGTTCAAAATCACCAACTGGTCCACCTACAACAAAGCTCTCATCAACCGTGGCTCCCTCACTTTCTGGCTGGATGATGGGGCGATTCAGGCCTGGTATGAGTCAGCAACACCTTCTTCACGAGGCAGACCTCAGCGCTCAAAGATGCAGGGGTAAAAGCTAACCGCATCTTTACCGACAAGGCATCCGGCAGTTCAACAGATCGGGAAGGGCTGGATTTGCTGAGGATGAAGGTGGAGGAAGGTGATGTCATTCTGGTGAAGAAGCTCGACCGTCTTGGCCGCGACACCGCCGACATGATCCAACTGATAAAAGAGTTTGATGCTCAGGGTGTAGCGGTTCGGTTTATTGACGACGGGATCAGTACCGACGGTGATATGGGGCAAATGGTGGTCACCATCCTGTCGGCTGTGGCACAGGCTGAACGCCGGAGGATCCTAGAGCGCACGAATGAGGGCCGACAGGAAGCAAAGCTGAAAGGAATCAAATTTGGCCGCAGGCGTACCGTGGACAGGAACGTCGTGCTGACGCTTCATCAGAAGGGCACTGGTGCAACGGAAATTGCTCATCAGCTCAGTATTGCCCGCTCCACGGTTTATAAAATTCTTGAAGACGAAAGGGCCTCGTGATACGCCTATTTTTATAGGTTAATGTCATGATAATAATGGTTTCTTAGACGTCAGGTGGCACTTTTCGGGGAAATGTGCGCGGAACCCCTATTTGTTTATTTTTCTAAATACATTCAAATAT (double strand) [PCR product, unmodified C]”, in data set [1] (methylation dependent, digests only 5mC or 5hmC DNA), the “activity on this sequence” value is “not active”.
